Measurements reported in PubChem BioAssay AID504793 (Drosophila RNAi Screening Center, 2011)

- Purpose: 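Genes required for cells to halt at G2/M after double-strand DNA breaks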 (primary screen)
- Cells: Drosophila S2R+ cells
- Knock-down reagent: long dsRNA against Drosophila genes, about 0.25 µg dsRNA per well
- Timing: 4 days of dsRNA, then 4 hours of drug before read-out
- Conditions: doxorubicin 0.5 µM for 4 hours to cause double-strand breaks, in cells also given a low, harmless dose of dsRNA against nbs to sensitise the assay
- Measurement: 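Mitotic index as the number of phospho-histone H3-positive cells in each well following doxorubicin, given as raw counts without normalisation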
- Direction: mitotic cells: higher = more cells in mitosis, weaker G2 arrest
- Rule for the call: 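Genes are called active only when high mitotic counts were reproduced with independent dsRNAs and mitosis was checked for delay without damage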
- Calls: active = confirmed in follow-up tests; inactive = not confirmed
In all, the deposit lists about 23,000 reagents; shown is a random part of those with a known target gene and a result. Of all reagents, 62 (0.27%) are marked active. 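Calls come from follow-up tests whose scores are not deposited, so confirmed genes may have low counts here; counts are not normalised per plate.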 The raw values are shown without normalisation. Reagent sequences are not shown.

Dr [DRSC17002]
- mitotic cells, replicate 1: 10
- mitotic cells, replicate 2: 10
- Call: inactive

Dr [DRSC22708]
- mitotic cells, replicate 1: 33
- Call: inactive

CG7706 [DRSC16295]
- mitotic cells, replicate 1: 12
- Call: inactive

CG7706 [DRSC26375]
- mitotic cells, replicate 1: 6
- Call: inactive

Lcp1 [DRSC07455]
- mitotic cells, replicate 1: 2
- Call: inactive

CG14969 [DRSC08428]
- mitotic cells, replicate 1: 4
- Call: inactive

CG3589 [DRSC04392]
- mitotic cells, replicate 1: 5
- Call: inactive

CG3589 [DRSC26755]
- mitotic cells, replicate 1: 3
- Call: inactive

stil [DRSC07699]
- mitotic cells, replicate 1: 6
- Call: inactive

Ir10a [DRSC18891]
- mitotic cells, replicate 1: 5
- Call: inactive

Ir10a [DRSC19478]
- mitotic cells, replicate 1: 8
- Call: inactive

Ir10a [DRSC19479]
- mitotic cells, replicate 1: 18
- Call: inactive

gudu [DRSC02820]
- mitotic cells, replicate 1: 6
- Call: inactive

CG42324 [DRSC08431]
- mitotic cells, replicate 1: 4
- Call: inactive

CG42324 [DRSC08432]
- mitotic cells, replicate 1: 6
- Call: inactive

CG42324 [DRSC26516]
- mitotic cells, replicate 1: 5
- Call: inactive

CG3402 [DRSC08567]
- mitotic cells, replicate 1: 3
- Call: inactive

Hsp68 [DRSC16712]
- mitotic cells, replicate 1: 12
- Call: inactive

Kdm3 [DRSC16393]
- mitotic cells, replicate 1: 3
- Call: inactive

Kdm3 [DRSC28659]
- mitotic cells, replicate 1: 6
- Call: inactive

Wdfy2 [DRSC02822]
- mitotic cells, replicate 1: 9
- Call: inactive

Wdfy2 [DRSC29755]
- mitotic cells, replicate 1: 9
- Call: inactive

Tfb4 [DRSC00675]
- mitotic cells, replicate 1: 7
- Call: inactive

Tfb4 [DRSC26946]
- mitotic cells, replicate 1: 2
- Call: inactive

atk [DRSC11418]
- mitotic cells, replicate 1: 4
- mitotic cells, replicate 2: 9
- Call: inactive

atk [DRSC11769]
- mitotic cells, replicate 1: 4
- Call: inactive

atk [DRSC26412]
- mitotic cells, replicate 1: 4
- Call: inactive

Gale [DRSC08234]
- mitotic cells, replicate 1: 6
- Call: inactive

CG2224 [DRSC15429]
- mitotic cells, replicate 1: 5
- Call: inactive

CG2224 [DRSC24269]
- mitotic cells, replicate 1: 5
- Call: inactive

ND2 (retired record) [DRSC21274]
- mitotic cells, replicate 1: 10
- Call: inactive

CG30279 (retired record) [DRSC22417]
- mitotic cells, replicate 1: 4
- Call: inactive

CG30279 (retired record) [DRSC27722]
- mitotic cells, replicate 1: 9
- Call: inactive

Cyp4d14 [DRSC18457]
- mitotic cells, replicate 1: 13
- Call: inactive

Cyp4d14 [DRSC24460]
- mitotic cells, replicate 1: 15
- Call: inactive

5 entries from above, showing only “mitotic cells, replicate 1”:
Wdfy2 [DRSC29755]	9
Tfb4 [DRSC00675]	7
Tfb4 [DRSC26946]	2
atk [DRSC11418]	4
atk [DRSC11769]	4
